# In US20070141141A1, “Pharmaceutical composition” (ASTRAZENECA AB, priority 2003, published 2007):
# Some results were stated once for a whole list of compounds, not compound by compound. The name of at least one read-out is uncertain.
# Assay: pH 6.5 dissolution test
# Assay type: physicochemical
# Conditions: pH 6.5 medium, compared to Comparative Examples and Control
# Procedure: The following test measures dissolution of a composition in a pH 6.5 dissolution medium and simulates the pH environment found in the upper intestine.
# The composition to be tested was placed into a 500 ml of a stirred dissolution medium at pH 6.5 at 37° C. (paddle speed 100 rpm). […] A fresh sample of dissolution medium was added after every sampling time point to maintain a constant volume of 500 ml dissolution medium throughout the test.
# The vial was then rinsed with a further 50 ml of fresh dissolution medium and the washings added to the main dissolution medium to ensure complete transfer of the composition (total volume of dissolution medium=500 ml).
smiles,measurement,value
"COc1cc2ncnc(Nc3ccc(F)c(Cl)c3)c2cc1OCCCN1CCOCC1 [Comparative 4, 4-(3′-chloro4′-fluoroanilino)-7-methoxy-6-(3-morpholinopropoxy)quinazoline]",Solubilisation of the Agent at pH 6.5 (in words),relatively low dissolution
